# Values joined by “and” are separate entries in the source; they are usually repeats but may differ in a detail not shown here. Identical values can stand only once. The campaign covered roughly 78,000 compounds. About 1,800 (2.3%) were called active. Inconclusive means that the source gave no clear call. Such entries were picked first, then a sample of the others. Cut-off read from the data, not from the text of the source: active = inhibition above about 30%; inconclusive = mostly about 10% to 28%; inactive = weaker than that.
# By UniProt entry, the sequences of proteins in these tests, tags left out. Where a name states a change or a piece, a line headed by the entry shows the natural chain unless it says otherwise.
# UniProt Q01638: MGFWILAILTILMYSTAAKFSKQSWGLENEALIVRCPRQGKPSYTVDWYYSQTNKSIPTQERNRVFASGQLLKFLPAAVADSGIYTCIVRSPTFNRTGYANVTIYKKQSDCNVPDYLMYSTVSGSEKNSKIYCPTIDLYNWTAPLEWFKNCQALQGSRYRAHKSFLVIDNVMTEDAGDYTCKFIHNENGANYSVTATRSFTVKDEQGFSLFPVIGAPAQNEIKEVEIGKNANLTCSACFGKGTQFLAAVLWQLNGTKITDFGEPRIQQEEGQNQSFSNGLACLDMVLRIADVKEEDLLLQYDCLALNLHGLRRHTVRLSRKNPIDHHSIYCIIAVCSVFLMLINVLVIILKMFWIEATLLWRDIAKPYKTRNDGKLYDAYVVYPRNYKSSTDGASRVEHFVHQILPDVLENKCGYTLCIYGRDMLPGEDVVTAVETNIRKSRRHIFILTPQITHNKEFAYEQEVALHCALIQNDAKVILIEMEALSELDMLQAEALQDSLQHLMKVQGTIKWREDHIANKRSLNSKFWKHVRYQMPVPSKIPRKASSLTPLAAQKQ
# Target: Interleukin-1 receptor-like 1 (Homo sapiens) (UniProt Q01638)
# Experiment: blocks human ST2 binding to IL-33, primary screen, biochemical, AlphaLISA (AID 1259354)
# Conditions: AlphaLISA ST2-Fc/biotin-IL-33 interaction, 1 h; at 17 µM, stronger effect = higher value
row,Structure (SMILES),inhibition
1,CCn1cnc2cc(NCc3ccc(N(C)C)cc3)ccc21,active: 52% and inconclusive: 24%
2,O=C(C1CCCCC1)N1CCN(c2ccccc2F)CC1,inconclusive: 13%
3,CN1CC2(CCCN(Cc3nnc(-c4cccc(F)c4)o3)C2)OC1=O (configuration not stated),inactive
4,CCOc1ccc([N+](=O)[O-])cc1C1Nc2ccccc2-c2nnc(SC)nc2O1 (configuration not stated),inactive
5,CN(Cc1cc(C(C)(C)C)n[nH]1)C(=O)c1cccc(-n2cccn2)c1,inconclusive: 10%
6,Cc1cc(N2CCCCC2)nc2ccc(NC(=O)CCC(=O)N(C)C3CCCCC3)cc12,inconclusive: 11%
7,Cc1ccc(SC2CCN(C(=O)CC3COCCN3)CC2)cc1 (configuration not stated),inconclusive: 17%
8,CCN1CCCC1CNC(=O)C1(O)c2cc(Br)ccc2NC(=O)N1c1ccccc1 (configuration not stated),inconclusive: 11%
9,NC(=O)NC(=O)Nc1ccc(I)cc1,inconclusive: 14%
10,Cc1nc(C(C)C)cc(N(C)Cc2cc(-c3ccncc3)no2)n1,inactive
11,O=C1C2CC=CCC2C(=O)N1c1ccc(F)c(Cl)c1 (configuration not stated),inconclusive: 20%
12,CCOc1ccc(NC(=O)c2cc(OC)cc(OC)c2)c([N+](=O)[O-])c1,inactive
13,COc1ccc(N=Cc2cc(Br)ccc2O)cc1Cl,inconclusive: 24%
14,Cc1c(C(=O)N2Cc3cnc(C(C)(C)C)nc3C2)cnc2ccnn12,inconclusive: 10%
15,COc1ccc(-n2nc3cc(C)c(NC(=O)c4ccc(Cl)c([N+](=O)[O-])c4)cc3n2)cc1,inactive
16,Cc1ccsc1[C@@H]1CCN(C(=O)c2nc3c(s2)CCCC3)C[C@H]1O,inconclusive: 11%
17,CCN1CCN(CCCNC(=O)c2cccn2-c2nnc(N3CCCCC3)s2)CC1,inactive
18,NS(=O)(=O)c1cc(C(=O)Nc2ccccc2)ccc1Br,inactive
19,CCc1ccc(S(=O)(=O)N2CCSC2c2cc(OC)ccc2OC)cc1 (configuration not stated),inactive
20,CC1CCc2nc(NC(=O)c3ccc(S(=O)(=O)N4CCc5ccccc54)cc3)sc2C1 (configuration not stated),active: 30%
21,COCc1ccc(C(=O)N2CCC(C(=O)Nc3cccc(-c4ccco4)c3)CC2)o1,inconclusive: 13%
22,O=C(Cn1c2ccccc2c(=O)c2ccccc21)Nc1ccc(F)cc1F,inactive
23,O=C(NCc1ccc(Cl)cc1)c1ccc2c(c1)OCO2,inactive
24,Cc1cccc(C(=O)N[C@@H]2CC[C@@H](N)C2)c1O,inactive
25,Cc1cc(Nc2ccccc2)nc(N2CCN(S(=O)(=O)c3cccc(Cl)c3)CC2)n1,inconclusive: 24%
26,CCc1cnc(C)nc1N(C)Cc1nc2ccsc2c(=O)[nH]1,inconclusive: 17%
27,CSCC(C)N1CCC(Oc2cc(Cl)ccc2C(=O)N2CCCCC2)CC1 (configuration not stated),inactive
